Test results: the supplement of paper PMC7666118
Some of the results follow.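 How the source made its calls: active = dose-dependent thermal stabilisation significant by F-test of dose-response against flat model at 10% FDR; inactive = not significant.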

Protein sequences, listed by entry. Tags and fused reporters are not part of them. Lines headed by an entry give the natural chain unless they say otherwise; changes in a name come on top.
UniProt P62879, whole entry: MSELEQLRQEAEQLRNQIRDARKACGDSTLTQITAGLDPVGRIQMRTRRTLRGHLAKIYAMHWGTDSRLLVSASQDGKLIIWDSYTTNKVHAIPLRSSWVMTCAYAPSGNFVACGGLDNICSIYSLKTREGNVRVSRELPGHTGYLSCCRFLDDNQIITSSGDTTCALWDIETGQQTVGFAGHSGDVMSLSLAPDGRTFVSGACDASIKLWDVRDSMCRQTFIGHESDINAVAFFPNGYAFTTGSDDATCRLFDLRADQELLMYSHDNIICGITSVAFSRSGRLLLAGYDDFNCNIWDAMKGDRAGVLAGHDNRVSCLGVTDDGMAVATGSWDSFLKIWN
UniProt Q9Y5P6: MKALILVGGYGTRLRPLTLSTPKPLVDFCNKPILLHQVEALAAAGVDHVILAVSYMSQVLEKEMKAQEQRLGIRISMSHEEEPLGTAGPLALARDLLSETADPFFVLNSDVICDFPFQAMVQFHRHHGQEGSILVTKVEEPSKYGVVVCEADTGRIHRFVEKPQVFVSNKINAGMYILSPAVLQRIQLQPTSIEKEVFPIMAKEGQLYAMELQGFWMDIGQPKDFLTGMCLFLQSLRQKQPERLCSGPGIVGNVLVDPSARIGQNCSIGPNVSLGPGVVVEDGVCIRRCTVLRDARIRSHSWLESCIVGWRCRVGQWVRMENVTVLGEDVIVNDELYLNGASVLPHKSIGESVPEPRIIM
UniProt Q12849: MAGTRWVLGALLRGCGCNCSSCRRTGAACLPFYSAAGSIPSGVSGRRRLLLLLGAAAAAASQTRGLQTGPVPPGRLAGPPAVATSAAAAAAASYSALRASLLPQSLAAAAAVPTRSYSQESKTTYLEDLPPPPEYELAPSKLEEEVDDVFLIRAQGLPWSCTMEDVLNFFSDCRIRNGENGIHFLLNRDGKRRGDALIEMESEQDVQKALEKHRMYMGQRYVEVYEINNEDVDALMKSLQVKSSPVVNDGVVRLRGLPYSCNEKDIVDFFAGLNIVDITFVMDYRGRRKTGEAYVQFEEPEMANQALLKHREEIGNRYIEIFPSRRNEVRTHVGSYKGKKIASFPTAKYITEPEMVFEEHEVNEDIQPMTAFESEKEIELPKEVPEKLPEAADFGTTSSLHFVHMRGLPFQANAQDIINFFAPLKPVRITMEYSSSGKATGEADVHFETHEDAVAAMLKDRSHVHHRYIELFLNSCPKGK
UniProt Q9Y5Z4: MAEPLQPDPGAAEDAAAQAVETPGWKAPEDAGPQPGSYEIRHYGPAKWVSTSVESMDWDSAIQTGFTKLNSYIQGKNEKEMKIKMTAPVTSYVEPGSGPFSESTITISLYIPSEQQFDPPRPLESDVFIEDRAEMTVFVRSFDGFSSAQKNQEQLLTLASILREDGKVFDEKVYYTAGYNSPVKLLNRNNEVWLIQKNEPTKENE
UniProt P32455: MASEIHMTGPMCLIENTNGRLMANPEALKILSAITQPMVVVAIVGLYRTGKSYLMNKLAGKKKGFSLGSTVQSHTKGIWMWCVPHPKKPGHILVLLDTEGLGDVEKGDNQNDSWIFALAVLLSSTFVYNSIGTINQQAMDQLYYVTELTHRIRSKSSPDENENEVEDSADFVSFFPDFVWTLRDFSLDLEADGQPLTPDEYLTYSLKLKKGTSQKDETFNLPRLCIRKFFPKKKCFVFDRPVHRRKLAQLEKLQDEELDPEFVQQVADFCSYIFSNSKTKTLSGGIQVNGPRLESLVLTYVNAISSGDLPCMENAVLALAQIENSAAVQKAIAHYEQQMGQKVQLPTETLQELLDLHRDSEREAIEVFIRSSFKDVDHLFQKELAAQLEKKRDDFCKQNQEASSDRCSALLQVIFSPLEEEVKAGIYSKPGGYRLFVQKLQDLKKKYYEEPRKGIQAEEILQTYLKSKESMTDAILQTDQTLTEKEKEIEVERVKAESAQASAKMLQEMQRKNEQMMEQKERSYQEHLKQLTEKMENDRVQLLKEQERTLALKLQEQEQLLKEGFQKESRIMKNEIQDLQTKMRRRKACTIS
UniProt Q9HCN4, whole entry: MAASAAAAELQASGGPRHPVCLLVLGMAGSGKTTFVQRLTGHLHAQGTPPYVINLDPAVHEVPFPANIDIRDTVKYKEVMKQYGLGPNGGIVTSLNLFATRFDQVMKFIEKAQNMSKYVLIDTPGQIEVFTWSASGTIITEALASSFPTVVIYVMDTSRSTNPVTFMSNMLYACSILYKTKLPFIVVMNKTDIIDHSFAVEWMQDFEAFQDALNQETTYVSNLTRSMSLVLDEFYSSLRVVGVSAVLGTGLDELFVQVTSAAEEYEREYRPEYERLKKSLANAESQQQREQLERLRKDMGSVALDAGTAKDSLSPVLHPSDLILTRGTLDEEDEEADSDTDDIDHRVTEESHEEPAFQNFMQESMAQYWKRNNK
UniProt O75330: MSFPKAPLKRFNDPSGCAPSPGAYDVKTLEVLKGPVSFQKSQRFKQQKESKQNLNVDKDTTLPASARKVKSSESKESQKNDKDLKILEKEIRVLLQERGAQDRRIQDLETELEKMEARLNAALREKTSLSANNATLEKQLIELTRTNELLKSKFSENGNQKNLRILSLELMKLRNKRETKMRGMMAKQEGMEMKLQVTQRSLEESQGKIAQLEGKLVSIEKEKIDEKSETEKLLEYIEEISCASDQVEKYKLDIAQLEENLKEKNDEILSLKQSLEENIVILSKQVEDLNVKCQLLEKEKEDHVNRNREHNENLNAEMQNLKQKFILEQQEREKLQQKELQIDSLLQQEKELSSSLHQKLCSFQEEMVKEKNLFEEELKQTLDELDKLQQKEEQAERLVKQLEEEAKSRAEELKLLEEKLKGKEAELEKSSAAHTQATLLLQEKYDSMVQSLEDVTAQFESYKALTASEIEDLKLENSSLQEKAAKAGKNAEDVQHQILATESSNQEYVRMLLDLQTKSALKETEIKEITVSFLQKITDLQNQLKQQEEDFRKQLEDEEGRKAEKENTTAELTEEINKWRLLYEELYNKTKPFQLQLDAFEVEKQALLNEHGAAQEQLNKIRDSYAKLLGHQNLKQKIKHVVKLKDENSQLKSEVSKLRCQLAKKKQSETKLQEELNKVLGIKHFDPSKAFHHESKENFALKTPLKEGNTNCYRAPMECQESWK
UniProt Q96CN9: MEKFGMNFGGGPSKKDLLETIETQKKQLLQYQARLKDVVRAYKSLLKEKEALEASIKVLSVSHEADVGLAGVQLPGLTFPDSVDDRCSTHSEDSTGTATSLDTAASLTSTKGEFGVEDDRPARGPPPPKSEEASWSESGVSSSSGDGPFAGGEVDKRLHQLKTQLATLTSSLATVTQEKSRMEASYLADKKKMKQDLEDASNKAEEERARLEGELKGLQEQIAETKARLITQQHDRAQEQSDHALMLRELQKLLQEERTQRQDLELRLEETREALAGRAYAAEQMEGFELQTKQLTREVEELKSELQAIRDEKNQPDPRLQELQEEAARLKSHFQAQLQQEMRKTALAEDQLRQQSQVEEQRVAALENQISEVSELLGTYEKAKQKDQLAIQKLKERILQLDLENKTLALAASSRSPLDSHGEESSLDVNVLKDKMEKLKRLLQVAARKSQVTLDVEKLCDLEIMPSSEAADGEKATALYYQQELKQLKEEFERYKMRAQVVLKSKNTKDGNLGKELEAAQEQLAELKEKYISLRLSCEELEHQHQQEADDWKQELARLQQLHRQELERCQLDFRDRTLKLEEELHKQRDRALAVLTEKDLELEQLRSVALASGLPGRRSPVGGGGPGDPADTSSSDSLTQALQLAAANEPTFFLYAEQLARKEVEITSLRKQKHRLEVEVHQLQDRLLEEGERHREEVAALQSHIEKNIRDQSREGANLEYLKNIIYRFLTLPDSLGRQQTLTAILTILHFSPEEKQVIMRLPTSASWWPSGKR
UniProt O75496: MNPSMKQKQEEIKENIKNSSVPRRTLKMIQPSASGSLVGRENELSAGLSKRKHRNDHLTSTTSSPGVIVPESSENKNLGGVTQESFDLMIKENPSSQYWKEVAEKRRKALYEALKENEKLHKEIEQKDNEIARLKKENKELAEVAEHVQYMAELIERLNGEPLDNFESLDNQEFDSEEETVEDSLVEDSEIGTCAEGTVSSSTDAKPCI
UniProt P49840: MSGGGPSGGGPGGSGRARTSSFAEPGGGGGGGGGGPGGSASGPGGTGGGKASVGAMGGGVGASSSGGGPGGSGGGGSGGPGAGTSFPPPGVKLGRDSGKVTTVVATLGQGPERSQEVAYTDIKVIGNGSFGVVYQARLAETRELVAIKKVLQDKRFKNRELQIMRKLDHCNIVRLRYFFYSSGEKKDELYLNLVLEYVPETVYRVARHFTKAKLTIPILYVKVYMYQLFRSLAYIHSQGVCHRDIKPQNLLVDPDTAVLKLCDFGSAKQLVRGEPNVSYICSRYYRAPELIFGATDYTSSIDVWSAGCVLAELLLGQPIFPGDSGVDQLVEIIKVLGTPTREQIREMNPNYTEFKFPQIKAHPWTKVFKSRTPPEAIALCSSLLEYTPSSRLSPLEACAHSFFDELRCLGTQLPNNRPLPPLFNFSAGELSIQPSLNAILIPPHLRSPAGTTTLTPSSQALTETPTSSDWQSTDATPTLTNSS
UniProt P35626: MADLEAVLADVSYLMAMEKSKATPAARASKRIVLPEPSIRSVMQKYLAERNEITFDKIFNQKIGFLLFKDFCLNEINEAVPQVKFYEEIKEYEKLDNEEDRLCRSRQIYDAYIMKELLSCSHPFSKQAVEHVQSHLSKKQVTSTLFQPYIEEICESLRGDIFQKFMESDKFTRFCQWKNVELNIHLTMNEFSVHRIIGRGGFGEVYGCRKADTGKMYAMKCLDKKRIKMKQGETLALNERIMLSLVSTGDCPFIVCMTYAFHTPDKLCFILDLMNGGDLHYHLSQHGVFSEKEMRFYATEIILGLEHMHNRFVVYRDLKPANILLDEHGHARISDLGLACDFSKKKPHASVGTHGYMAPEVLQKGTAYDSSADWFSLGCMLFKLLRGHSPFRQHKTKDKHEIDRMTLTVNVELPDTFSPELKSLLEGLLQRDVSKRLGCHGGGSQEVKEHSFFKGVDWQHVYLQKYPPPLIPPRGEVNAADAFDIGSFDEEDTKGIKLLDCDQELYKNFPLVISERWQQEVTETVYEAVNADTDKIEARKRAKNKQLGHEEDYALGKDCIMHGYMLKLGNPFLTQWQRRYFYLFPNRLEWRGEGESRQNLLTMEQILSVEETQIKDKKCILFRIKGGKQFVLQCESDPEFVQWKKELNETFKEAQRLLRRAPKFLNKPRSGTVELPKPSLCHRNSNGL
UniProt Q9Y2X7: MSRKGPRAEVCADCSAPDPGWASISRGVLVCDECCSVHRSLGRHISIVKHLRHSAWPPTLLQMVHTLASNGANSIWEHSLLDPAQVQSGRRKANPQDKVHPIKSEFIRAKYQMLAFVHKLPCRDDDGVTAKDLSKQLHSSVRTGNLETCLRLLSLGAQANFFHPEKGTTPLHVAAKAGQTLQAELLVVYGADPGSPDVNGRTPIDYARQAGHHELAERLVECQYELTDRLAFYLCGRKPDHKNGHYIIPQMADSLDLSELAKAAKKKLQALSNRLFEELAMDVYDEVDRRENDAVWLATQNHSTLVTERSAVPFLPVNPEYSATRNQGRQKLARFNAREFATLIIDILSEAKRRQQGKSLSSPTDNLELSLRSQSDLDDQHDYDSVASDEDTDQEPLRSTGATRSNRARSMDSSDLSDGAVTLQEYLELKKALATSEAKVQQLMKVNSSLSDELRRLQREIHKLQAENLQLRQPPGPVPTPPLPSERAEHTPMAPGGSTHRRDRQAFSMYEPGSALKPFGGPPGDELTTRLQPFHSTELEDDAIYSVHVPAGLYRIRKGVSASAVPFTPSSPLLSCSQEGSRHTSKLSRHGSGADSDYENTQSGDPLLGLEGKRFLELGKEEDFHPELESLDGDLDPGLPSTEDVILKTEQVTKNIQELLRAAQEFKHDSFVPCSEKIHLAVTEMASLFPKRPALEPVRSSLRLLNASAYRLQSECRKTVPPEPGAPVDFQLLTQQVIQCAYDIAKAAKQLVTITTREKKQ
UniProt Q86VQ1: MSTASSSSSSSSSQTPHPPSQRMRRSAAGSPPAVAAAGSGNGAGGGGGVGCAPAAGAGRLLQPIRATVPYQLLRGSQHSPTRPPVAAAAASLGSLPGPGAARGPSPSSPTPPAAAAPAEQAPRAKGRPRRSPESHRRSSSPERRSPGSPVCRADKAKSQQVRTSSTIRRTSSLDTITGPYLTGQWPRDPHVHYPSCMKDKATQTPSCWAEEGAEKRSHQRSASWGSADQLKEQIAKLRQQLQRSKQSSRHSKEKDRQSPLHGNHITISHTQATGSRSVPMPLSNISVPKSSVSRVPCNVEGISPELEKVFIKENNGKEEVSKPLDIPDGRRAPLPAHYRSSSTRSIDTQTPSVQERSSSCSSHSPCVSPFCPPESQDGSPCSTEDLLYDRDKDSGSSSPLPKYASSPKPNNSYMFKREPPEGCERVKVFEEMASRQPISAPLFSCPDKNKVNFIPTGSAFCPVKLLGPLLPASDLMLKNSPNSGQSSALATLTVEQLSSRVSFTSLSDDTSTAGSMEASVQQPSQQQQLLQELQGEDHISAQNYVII

Each target was assayed with Nc1nc2c(ncn2[C@@H]2O[C@H](COP(=O)(O)OP(=O)(O)OP(=O)(O)O)[C@@H](O)[C@H]2O)c(=O)[nH]1 (assay: dose-dependent thermal stabilisation call (2D-TPP, DLPTP, 10% FDR) (binary (1 = stabilised)); higher = stabilised by the compound). Conditions: system: Jurkat gel-filtered lysate; concentration range 1-500 µM.

| Target | dose-dependent thermal stabilisation call |
| --- | --- |
| GGA2 (UniProt Q9UJY4) | inactive: 0 |
| HIBADH (UniProt P31937) | inactive: 0 |
| GNB2 (UniProt P62879) | inactive: 0 |
| GMPPB (UniProt Q9Y5P6) | active: 1 |
| GRSF1 (UniProt Q12849) | inactive: 0 |
| GNAO1 (UniProt P09471) | inactive: 0 |
| GATC (UniProt O43716) | inactive: 0 |
| HNRNPK (UniProt P61978) | inactive: 0 |
| HADHB (UniProt P55084) | inactive: 0 |
| HNRNPH3 (UniProt P31942) | inactive: 0 |
| HMG20A (UniProt Q9NP66) | inactive: 0 |
| HIRIP3 (UniProt Q9BW71) | inactive: 0 |
| GPX1 (UniProt P07203) | inactive: 0 |
| HEBP2 (UniProt Q9Y5Z4) | inactive: 0 |
| GBP1 (UniProt P32455) | active: 1 |
| GLUD1 (UniProt P00367) | inactive: 0 |
| GPN1 (UniProt Q9HCN4) | active: 1 |
| GCH1 (UniProt P30793) | inactive: 0 |

| Target | dose-dependent thermal stabilisation call |
| --- | --- |
| GPD1L (UniProt Q8N335) | active: 1 |
| HMMR (UniProt O75330) | inactive: 0 |
| GSTM3 (UniProt P21266) | active: 1 |
| GPKOW (UniProt Q92917) | active: 1 |
| GMDS (UniProt O60547) | active: 1 |
| GOLGA2 (UniProt Q08379) | inactive: 0 |
| GEMIN5 (UniProt Q8TEQ6) | inactive: 0 |
| GCLM (UniProt P48507) | inactive: 0 |
| GCC1 (UniProt Q96CN9) | active: 1 |
| GMNN (UniProt O75496) | inactive: 0 |
| GNPDA1 (UniProt P46926) | inactive: 0 |
| GIGYF2 (UniProt Q6Y7W6) | inactive: 0 |
| GSK3A (UniProt P49840) | inactive: 0 |
| GRK3 (UniProt P35626) | active: 1 |
| HIBCH (UniProt Q6NVY1) | inactive: 0 |
| GYG1 (UniProt P46976) | inactive: 0 |
| GIT1 (UniProt Q9Y2X7) | inactive: 0 |
| GLCCI1 (UniProt Q86VQ1) | inactive: 0 |

Part of the list above, with tabs.
Target	dose-dependent thermal stabilisation call
HIRIP3 (UniProt Q9BW71)	inactive: 0
GPX1 (UniProt P07203)	inactive: 0
HEBP2 (UniProt Q9Y5Z4)	inactive: 0
GBP1 (UniProt P32455)	active: 1
GLUD1 (UniProt P00367)	inactive: 0
GPN1 (UniProt Q9HCN4)	active: 1
GCH1 (UniProt P30793)	inactive: 0
GPD1L (UniProt Q8N335)	active: 1
HMMR (UniProt O75330)	inactive: 0
GSTM3 (UniProt P21266)	active: 1
GPKOW (UniProt Q92917)	active: 1
